The assay is described as follows: qHTS Assay for Lipid Storage Modulators in Drosophila S3 Cells.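 As to cell number change: cells counted by Cell Tracker Red CMTPX staining in the red channel.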 To be noted: BODIPY lipid droplet fluorescence, 18-24 h; for cell number change: measured here: cell count max response, cells fed with added oleic acid. The gist of the method: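 Drosophila S3 cells got compounds at several concentrations plus oleic acid (400 uM solution). Laser-scanning cytometry with 488 nm excitation read lipid droplets at 500-530 nm and cells at 575-640 nm. Percent activity was relative to 20 uM Triacsin C.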

Setting [1] is: measured here: lipid fluorescence (Fed channel) AC50, cells fed with added oleic acid.
The mark [2] stands for this setting: measured here: cell number channel AC50, cells fed with added oleic acid.

Structures are written as SMILES. The list shows a part of the results. Shown are side measurements of this screen, not its main read-out; they come without a call. Most of these compounds were active or inconclusive in the main read-out, so they are no random draw. Words in brackets tell the shape of the fitted curve; partial curves, single points and poor fits give uncertain potencies.

Turning to `O=c1[nH]c(=O)n(Cc2ccc(F)cc2)c(O)c1/C=N/Nc1ccccc1`, under setting [1], the AC50 is 0.58 µM [rising, full curve].
Turning to `Cc1ccc2c(c1N)C(=O)c1ccccc1C2=O`, the cell number change was -64.1%. The AC50 under setting [2] is 4.11 µM [falling, single point]. Besides, the concentration at half-maximal activity (AC50) under setting [1] was 0.116 µM [rising, single point].
For `C=COCCn1c(C)c(C(=O)OCC)c2cc(O)ccc21`, the concentration at half-maximal activity (AC50) reads like this: under setting [2], 2.06 µM [rising, single point]; under setting [1], 1.46 µM [rising, single point].
For the compound `CN1CCC(N(C)c2ncnc3ccc(Br)cc23)CC1`, the cell number change is 7.62%. The AC50 under setting [1] was 0.651 µM [falling, single point].
For the compound `COc1ccc(OC)c(NC2=NCCS2)c1`, the cell number change was 144%. Moreover, the AC50 under setting [2] was 4.11 µM [falling, single point]. Under setting [1], the AC50 was 18.4 µM [rising, single point].
As for `COc1cccc(CN2CCNCC2)c1OC`, the cell number change is 3.67%. Further, under setting [1], the AC50 is 16.4 µM [falling, single point].
Turning to `N#CCCn1cc(C(=O)O)c(-c2cccc([N+](=O)[O-])c2)n1`, the cell number change is -16.4%. In addition, under setting [1], the AC50 is 0.366 µM [rising, full curve, poor fit].
Turning to `COc1ccc(-c2cc(=NCCCCCC(=O)O)c3cc(C)ccc3o2)cc1`, the cell number change was -0.648%.
Turning to `CN(C)P(=O)(CCl)Nc1ccccc1` (configuration not stated), the cell number change was -13.3%. Moreover, under setting [1], the concentration at half-maximal activity (AC50) was 0.13 µM [falling, full curve, poor fit].
In the case of `COc1ccc(OC)c(/C=N/OC(=O)Nc2ccc(Cl)cc2)c1`, the cell number change is -13.1%.
For `CC(=O)Nc1ccccc1C(=O)OCc1ccc(F)cc1`, the cell number change is 18.4%. Besides, the half-maximal activity concentration (AC50) under setting [1] is 32.6 µM [rising, partial curve, poor fit].
Regarding `CCN1C(=O)NC(=O)/C(=C\c2cn(CC(=O)N3CCCCC3C)c3ccccc23)C1=O` (configuration not stated), the cell number change was -18.1%.
Regarding `O=S(=O)(c1ccc(F)cc1)N1CCCC1c1cccnc1` (configuration not stated), the cell number change was 0.746%. Moreover, the AC50 under setting [1] was 6.51 µM [falling, single point].
Consider `Cc1ncc(CN2CCCC(C(=O)c3ccc(C(C)(C)C)cc3)C2)s1` (configuration not stated), for which the cell number change is -26.4%. The AC50 under setting [1] is 0.651 µM [falling, full curve, poor fit].
With `Cc1cc(OCC(=O)O)c2c3c(c(=O)oc2c1)CCCC3`, the cell number change stood at 7.15%.
Consider `O=C(CN1CCN(Cc2cccc(Cl)c2)C1=O)N1CCC2(CC1)OCCO2`, for which the cell number change was determined as 2.33%. The AC50 under setting [2] is 0.00461 µM [falling, full curve, poor fit]. Further, the concentration at half-maximal activity (AC50) under setting [1] is 29.1 µM [rising, single point].
`CN1CCc2cc3c(cc2[C@H]1[C@@H]1OC(=O)c2c1ccc1c2OCO1)OCO3`: the cell number change came out at 18.7%. In addition, under setting [1], the AC50 was 1.03 µM [rising, full curve].
Regarding `CCOC(=O)C1(CCOc2ccccc2)CCN(C(C)CSC)CC1` (configuration not stated), the cell number change worked out at 17.6%.
Turning to `CN1CC(C(=O)c2ccc(Cl)cc2)C(c2ccc(Cl)cc2Cl)C1` (configuration not stated), the cell number change is -47.9%. The half-maximal activity concentration (AC50) under setting [2] is 13 µM [falling, partial curve]. The AC50 under setting [1] was 16.4 µM [falling, partial curve].
`O=c1cccc2n1CC1CC2CN(Cc2ccc3c(c2)OCO3)C1` (configuration not stated): the cell number change turned out to be 13.5%.
Take `CNC(=O)Nc1ccc(C(O)(C(=O)OC)C(F)(F)F)cc1` (configuration not stated): the cell number change was 3.63%. Moreover, under setting [2], the AC50 is 6.51 µM [rising, single point]. The AC50 under setting [1] was 6.51 µM [rising, partial curve, poor fit].
As to `O=C1NC(=O)C(=Cc2ccc(Oc3ccc([N+](=O)[O-])cc3)cc2)C(=O)N1`, the cell number change worked out at 59%. For the same compound, under setting [2], the concentration at half-maximal activity (AC50) is 29.1 µM [rising, single point]. The AC50 under setting [1] was 11.6 µM [rising, partial curve, poor fit].
For `CN(C)C(=O)Oc1cccc(-c2cn3cc(Cl)ccc3n2)c1`, the cell number change was 17.1%. Further, the AC50 under setting [1] is 29.1 µM [rising, single point].
On to `Cc1ccc2c(c1)CNc1ccccc1O2`, for which the cell number change is -40.7%. Further, under setting [2], the concentration at half-maximal activity (AC50) was 29.1 µM [falling, single point].
Take `C/C=C/c1ccc2c(c1)OCO2`: the cell number change was -10.5%. In addition, under setting [1], the AC50 was 0.0116 µM [falling, full curve, poor fit].
For `O=C(c1ccccc1)c1ccc(OC(=O)N2CCOCC2)cc1`, the AC50 under setting [2] is 32.6 µM [falling, partial curve, poor fit].
`COc1ccc(-c2cc(-c3ccccc3)[n+](C)c(-c3ccccc3)c2)cc1`: the cell number change is -69.7%. Besides, the AC50 under setting [2] is 13 µM [falling, partial curve, poor fit]. Under setting [1], the half-maximal activity concentration (AC50) was 13 µM [falling, partial curve].
`Cn1c(=O)n(CC(=O)N2CCC3(CC2)OCCO3)c(=O)c2ccccc21`: under setting [2], the AC50 was 2.06 µM [rising, partial curve, poor fit].
For `O=C1NC(=O)C(=Cc2ccc(N3CCOCC3)cc2)C(=O)N1`, the cell number change was -39.3%. Moreover, under setting [2], the half-maximal activity concentration (AC50) is 3.26 µM [falling, single point]. For the same compound, the AC50 under setting [1] was 0.116 µM [rising, full curve, poor fit].
Regarding `CN(CCc1ccccc1)Cc1c[nH]c2ccccc12`, under setting [1], the AC50 was 29.1 µM [falling, single point].
On to `COc1cccc(-n2nc(C(=O)N3CCC4(CC3)OCCO4)c3ccccc3c2=O)c1`, for which the cell number change came out at 8.52%. Further, the AC50 under setting [1] is 6.51 µM [rising, single point].
In the case of `O=C(Cc1ccccc1)N1CCN(Cc2ccc(F)cc2)CC1`, the cell number change was 19.9%.
On the same count and under the same terms, the same measure for `Cn1c(O)c(/C=N/NC(=O)c2ccncc2)c(=O)[nH]c1=S`: 4.23%.
As for `CC1CCCCC1NC1CCN(C)CC1` (configuration not stated), the cell number change came to 7.14%. Under setting [1], the half-maximal activity concentration (AC50) was 5.8 µM [falling, single point].
On to `N#CC1=C(N)Oc2cc(O)ccc2C1c1ccc2c(c1)OCO2` (configuration not stated), for which the cell number change was -3.73%. In addition, the AC50 under setting [2] was 2.91 µM [rising, single point].
Regarding `O=c1[nH]c2ccccc2c(=O)n1-c1ccc(Cl)cc1Cl`, the cell number change was determined as 8.68%.
For the compound `CC(C)CN1CCN(Cc2ccc(F)cc2Cl)CC1CCO` (configuration not stated), the cell number change was found to be 10.1%. The half-maximal activity concentration (AC50) under setting [1] is 0.116 µM [falling, full curve, poor fit].
Consider `CCC(=NCCN1CCCCC1)c1c(O)n(C)c(=O)n(C)c1=O`, for which the cell number change is -176%. In addition, the AC50 under setting [2] is 29.1 µM [falling, single point].
Consider `Oc1ccc(Cl)c(Cl)c1Cl`, for which the cell number change was -6.78%. The AC50 under setting [1] was 18.4 µM [rising, single point].
As for `Cc1cccc(-n2c(O)c(C=NCc3cccnc3)c(=O)[nH]c2=O)c1C`, the cell number change was 2.21%.
In the case of `CCCCCCN1CCN(c2ccc(Cl)cc2)CC1`, the cell number change came to 1.25%. Moreover, under setting [2], the concentration at half-maximal activity (AC50) is 3.66 µM [rising, single point]. For the same compound, the AC50 under setting [1] was 0.731 µM [rising, partial curve, poor fit].
With `O=C1NC(=O)N(C2CCCCC2)C(=O)C1C1c2ccccc2C(=O)N1Cc1ccccc1` (configuration not stated), the cell number change was -8.89%. Moreover, under setting [1], the concentration at half-maximal activity (AC50) was 4.11 µM [falling, full curve, poor fit].
In the case of `COC(=O)C(O)(c1ccc(N(C)C(=O)c2ccc(Cl)c(Cl)c2)cc1)C(F)(F)F` (configuration not stated), the AC50 under setting [1] is 0.517 µM [falling, single point].
With `COC(=O)C1=C(c2ccc(-c3ccccc3)c(F)c2)C[C@@H]2CC[C@H]1N2C(=O)NC(C)C`, the cell number change was -10.6%. Under setting [1], the concentration at half-maximal activity (AC50) was 4.11 µM [rising, partial curve].
Turning to `CN(C(=O)Oc1ccc(C(=O)c2ccc(Cl)cc2)cc1)c1ccccc1`, the cell number change was 8.8%.
As to `COC(=O)C1=C(c2ccc(OCc3ccccc3)cc2)C[C@@H]2CC[C@H]1N2C(=O)NCCCc1ccccc1`, the cell number change was -50.4%. Besides, under setting [2], the AC50 is 6.51 µM [falling, partial curve]. Also, the half-maximal activity concentration (AC50) under setting [1] was 6.51 µM [falling, partial curve].
As to `NCC1(CC(=O)O)CCCCC1`, the cell number change turned out to be 23.5%. Further, the half-maximal activity concentration (AC50) under setting [2] is 0.651 µM [rising, full curve, poor fit]. Under setting [1], the AC50 is 0.00411 µM [rising, full curve, poor fit].
On to `COc1cc2ccc(=O)oc2c2ccoc12`, for which the cell number change is 17.7%. The AC50 under setting [1] is 8.2 µM [rising, partial curve].
With `O=C(Cn1ccc2ccccc2c1=O)NCC(=O)N1CCC2(CC1)OCCO2`, the cell number change was 13.6%.
The same measure, in the same setting: the same measure for `COc1ccccc1OCC(=O)N1CCCC(N2CCN(c3ccc(F)cc3)CC2)C1` (configuration not stated): 26%.
Consider `[O-]c1ccccc1-[n+]1c(-c2ccccc2)cc(-c2ccccc2)cc1-c1ccccc1`, for which the cell number change was -27.3%. The half-maximal activity concentration (AC50) under setting [1] is 6.51 µM [falling, single point].
On to `Brc1ccc(-[n+]2c(-c3ccccc3)cc(-c3ccccc3)cc2-c2ccccc2)cc1`, for which the cell number change came out at 6.93%.
In the case of `COc1cc(CN2CCN(c3cc(C)ccc3C)CC2)ccc1O`, the cell number change is -8.77%. For the same compound, under setting [1], the AC50 is 6.51 µM [rising, single point].
Regarding `CCOC(=O)C1(c2ccccc2)CCN(CC(=O)Nc2ccc(C)cc2)CC1`, the AC50 by setting is: under setting [2], 1.84 µM [rising, partial curve, poor fit]; under setting [1], 29.1 µM [rising, single point].
Consider `CCOc1cc2c(cc1OCC)-n1cccc1C(c1cccc(OCC)c1O)NC2` (configuration not stated), for which the concentration at half-maximal activity (AC50) under setting [1] was 18.4 µM [rising, partial curve, poor fit].
On to `CC1=CC2/C=C(\C)CCC(O)C(O)/C=C/C(=O)C23C(=O)NC(CC(C)C)C3C1C` (configuration not stated), for which the cell number change was -61.9%. The concentration at half-maximal activity (AC50) under setting [2] is 32.6 µM [falling, single point]. For the same compound, the AC50 under setting [1] was 4.61 µM [falling, partial curve].
For the compound `COCCN1C(=O)NC(=O)/C(=C\c2ccc(F)cc2)C1=O`, the cell number change is -27.2%. The AC50 under setting [1] is 7.31 µM [falling, single point].
For `O=C1NC(=O)C2(Cc3ccccc3N3CCCC32)C(=O)N1Cc1ccccc1` (configuration not stated), the cell number change was 12.6%. Moreover, the AC50 under setting [1] was 29.1 µM [falling, single point].
As to `Nc1nonc1C(=O)N/N=C/c1ccc([N+](=O)[O-])o1`, the cell number change was -21.3%.
For the compound `COc1ccc(-n2c(O)c(/C=C/C=Nc3ccccc3)c(=O)[nH]c2=O)cc1`, the cell number change is -74.7%. Besides, the AC50 under setting [2] is 16.4 µM [falling, partial curve]. The concentration at half-maximal activity (AC50) under setting [1] was 0.651 µM [falling, partial curve, poor fit].
On to `CCOC(=O)c1[nH]c2ccc(OC)cc2c1C(SCC(=O)O)c1ccc(C(F)(F)F)cc1` (configuration not stated), for which the cell number change was -35.2%. Also, the half-maximal activity concentration (AC50) under setting [2] was 23.1 µM [falling, single point]. In addition, under setting [1], the AC50 is 29.1 µM [falling, single point].
On to `Cc1ccc(-n2c(O)c(C=NC3CCCC3)c(=O)[nH]c2=O)c(C)c1`, for which the cell number change is 11.4%. Further, the AC50 under setting [1] was 0.206 µM [falling, full curve, poor fit].

For the origin of these results see PubChem BioAssay AID2685 (National Center for Advancing Translational Sciences (NCATS), 2010).
